Values quoted from earlier work, collected in US8828977B2, “Method of treating a subject suffering from degenerative disc disease using a matrix metalloprotease inhibitor” (priority 2006, dated 2014).
At least one structure is not confirmed: it was looked up by name or label, or the drawing left a doubt.

Experiments:
[1] = system: prostate cancer cell lines; settings: concentration-dependent
[2] = system: human umbilical vein endothelial cells (HUVECs); settings: HUVECs stimulated with angiogenic factors in vitro
[3] = system: Dunning MatLyLu rat prostate tumor; settings: daily gavage at 40 mg/kg for 7 days; controls 59.5±13.9

C[C@H]1c2cccc(O)c2C(=O)C2=C(O)[C@]3(O)C(=O)C(C(N)=O)=C(O)[C@@H](N(C)C)[C@@H]3[C@@H](O)[C@@H]21 [doxycycline]
induction of apoptosis [1]: did not induce apoptosis | microtubule formation [2]: inhibited microtubule formation | instances of lung metastases [3]: 43.6±18.8 tumors/animal
